Data as given in PubChem BioAssay AID504791 (Drosophila RNAi Screening Center, 2011).
In all, the deposit lists about 23,000 reagents; shown is an unselected part of those that have a named target and a result. Of all reagents, 199 (0.86%) are marked active. 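Plate-scaled ratios behind the calls are not deposited; printed light signals are raw; many rows marked increased or decreased are still called inactive.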 No sequences are given here. Not given: the direction of the score.

Purpose: 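Genes whose knock-down strengthens or weakens small-RNA reporter silencing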 (primary screen)
System: Drosophila S2-derived reporter cells
Reagents: long dsRNA against Drosophila genes, about 150-250 ng dsRNA per well (siRNA assay); about 80-120 ng (miRNA assay)
Duration: about 5 days (siRNA assay); about 4 days (miRNA assay)
Treatment: copper sulfate induction of reporters: 25 µM (siRNA assay); 200 mM stated (miRNA assay), 1-2 days before reading
Read-out: 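Dual luciferase assay: Renilla to firefly signal ratio in each well, scaled to the mean ratio of its plate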
Units: stable assay Renilla, run 1 in luminescence; stable assay firefly, run 1 in luminescence
Active means: 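First-pass picks had plate-scaled ratios over 1.5 for the siRNA assay, over 1.6 for the miRNA assay, or under 0.6; two distinct dsRNAs had to score alike on retest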

Knock-down of CG33655 [DRSC03858] resulted in: stable assay Renilla, run 1 = 4640; stable assay firefly, run 1 = 2.82e5; inactive. Silencing of FIG4 [DRSC00515] came out at: stable assay Renilla, run 1 = 12278; stable assay firefly, run 1 = 7.31e5; inactive. With knock-down of PIG-B [DRSC08216], the record shows stable assay Renilla, run 1 = 4359; stable assay firefly, run 1 = 4.18e5; inactive. Knock-down of PIG-B [DRSC22598] gave: stable assay Renilla, run 1 = 3528; stable assay firefly, run 1 = 3.03e5; inactive. After knock-down of cni [DRSC03512], the screen gave stable siRNA reporter change reporter ratio lowered past the hit cutoff; stable assay Renilla, run 1 = 6696; stable assay firefly, run 1 = 6.67e5; inactive. Knock-down of Rsod [DRSC15424] came out at: stable assay Renilla, run 1 = 6471; stable assay firefly, run 1 = 4.20e5; inactive.

For chn [DRSC06086], the values are stable assay Renilla, run 1 = 6867; stable assay firefly, run 1 = 5.07e5; inactive. CG17199 [DRSC15192] scored stable assay Renilla, run 1 = 8143; stable assay firefly, run 1 = 3.67e5; inactive. With knock-down of AOX1 [DRSC15339], the record shows stable assay Renilla, run 1 = 8313; stable assay firefly, run 1 = 4.99e5; inactive. CG7523 [DRSC16254] scored stable assay Renilla, run 1 = 9648; stable assay firefly, run 1 = 4.04e5; inactive. For Myc [DRSC18762], the entry reads stable assay Renilla, run 1 = 6024; stable assay firefly, run 1 = 3.91e5; inactive. With knock-down of CG9951 [DRSC11105], the record shows stable assay Renilla, run 1 = 8558; stable assay firefly, run 1 = 2.73e5; inactive.

Ugt35E1 [DRSC15193] showed stable assay Renilla, run 1 = 5262; stable assay firefly, run 1 = 3.82e5; inactive. After knock-down of PAN3 [DRSC08190], the record shows stable assay Renilla, run 1 = 7410; stable assay firefly, run 1 = 4.51e5; inactive. For ND-ASHI [DRSC18291] the deposit lists stable assay Renilla, run 1 = 4504; stable assay firefly, run 1 = 3.32e5; inactive. After knock-down of GstS1 [DRSC07436], the record shows stable assay Renilla, run 1 = 11256; stable assay firefly, run 1 = 4.76e5; inactive. CG34281 [DRSC14807] gave stable assay Renilla, run 1 = 7358; stable assay firefly, run 1 = 5.17e5; inactive. With knock-down of Cpr64Ab [DRSC08461] the results were stable assay Renilla, run 1 = 5647; stable assay firefly, run 1 = 3.05e5; inactive.

RpS24 [DRSC04414] scored stable assay Renilla, run 1 = 3740; stable assay firefly, run 1 = 3.53e5; inactive. Depletion of CG15109 [DRSC06536] gave: stable assay Renilla, run 1 = 5755; stable assay firefly, run 1 = 3.10e5; inactive. Knock-down of CG3842 [DRSC18326] came out at: stable assay Renilla, run 1 = 6407; stable assay firefly, run 1 = 4.39e5; inactive. Depletion of CG4679 [DRSC06880] gave: stable assay Renilla, run 1 = 5379; stable assay firefly, run 1 = 3.80e5; inactive. Against mts [DRSC03574] the deposit lists miRNA reporter change reporter ratio raised past the hit cutoff; stable assay Renilla, run 1 = 89683; stable assay firefly, run 1 = 81446; inactive. For Gbp1 [DRSC06592] the deposit lists stable assay Renilla, run 1 = 6630; stable assay firefly, run 1 = 3.41e5; inactive.

With knock-down of Surf1 [DRSC11295] the results were stable assay Renilla, run 1 = 6198; stable assay firefly, run 1 = 4.89e5; inactive. For Surf1 [DRSC11394], the entry reads stable assay Renilla, run 1 = 7957; stable assay firefly, run 1 = 3.42e5; inactive. After knock-down of wwk [DRSC01941], the record shows stable assay Renilla, run 1 = 7530; stable assay firefly, run 1 = 4.44e5; inactive. Silencing of Diedel [DRSC14317] came out at: stable assay Renilla, run 1 = 4867; stable assay firefly, run 1 = 3.84e5; inactive. With knock-down of Cyp9b2 [DRSC07390], the record shows stable assay Renilla, run 1 = 6838; stable assay firefly, run 1 = 3.45e5; inactive. Depletion of CG10898 [DRSC14279] came out at: stable assay Renilla, run 1 = 7880; stable assay firefly, run 1 = 5.22e5; inactive.

Against CG32801 [DRSC17964], the values are stable assay Renilla, run 1 = 5935; stable assay firefly, run 1 = 3.19e5; inactive. Depletion of Gyf [DRSC17202] resulted in: stable assay Renilla, run 1 = 5095; stable assay firefly, run 1 = 3.17e5; inactive. Ir75c [DRSC10190] gave stable assay Renilla, run 1 = 7883; stable assay firefly, run 1 = 3.95e5; inactive. With knock-down of arg [DRSC18737] the results were stable assay Renilla, run 1 = 7327; stable assay firefly, run 1 = 5.69e5; inactive. After knock-down of agt [DRSC12611] the results were stable assay Renilla, run 1 = 6814; stable assay firefly, run 1 = 4.27e5; inactive.

4 entries from above, arranged by “stable assay Renilla, run 1”, lowest first.
ND-ASHI [DRSC18291] — stable assay Renilla, run 1: 4504; stable assay firefly, run 1: 3.32e5; Call: inactive
Cpr64Ab [DRSC08461] — stable assay Renilla, run 1: 5647; stable assay firefly, run 1: 3.05e5; Call: inactive
CG34281 [DRSC14807] — stable assay Renilla, run 1: 7358; stable assay firefly, run 1: 5.17e5; Call: inactive
GstS1 [DRSC07436] — stable assay Renilla, run 1: 11256; stable assay firefly, run 1: 4.76e5; Call: inactive
